# According to the supplement of paper PMC8728848:
# The other results are listed elsewhere or left out.
# What was measured:
# Test in all cases: glycan array binding signal (z-score within array); higher = stronger binding
# Conditions in all cases: glycan notation: IUPAC condensed, linker removed
# [1] = biological target: Fuc(a1-2)Gal(b1-4)[Fuc(a1-3)]GlcNAc(b1-2)Man(a1-3)[Fuc(a1-2)Gal(b1-4)[Fuc(a1-3)]GlcNAc(b1-2)Man(a1-6)]Man(b1-4)GlcNAc(b1-4)[Fuc(a1-6)]GlcNAc
# Summary of the method: (§1)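 Negative Z-scores can be read as non-binding. The Z-score is calculated within each array and then averaged across arrays of one protein sequence at different concentrations or buffers and across linkers. Arrays, 3228 in all, were curated from the Consortium for Functional Glycomics database and kept only where the protein sequence was available.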
# [2] = biological target: Fuc(a1-2)Gal(b1-4)[Fuc(a1-3)]GlcNAc(b1-2)[Fuc(a1-2)Gal(b1-4)[Fuc(a1-3)]GlcNAc(b1-4)]Man(a1-3)[Fuc(a1-2)Gal(b1-4)[Fuc(a1-3)]GlcNAc(b1-2)Man(a1-6)]Man(b1-4)GlcNAc(b1-4)GlcNAc
# Summary of the method: as §1
# [3] = biological target: Fuc(a1-2)Gal(b1-4)[Fuc(a1-3)]GlcNAc(b1-3)Gal(b1-4)[Fuc(a1-3)]GlcNAc
# Summary of the method: as §1
# [4] = biological target: Fuc(a1-2)Gal(b1-4)[Fuc(a1-3)]GlcNAc(b1-3)Gal(b1-4)[Fuc(a1-3)]GlcNAc(b1-3)Gal(b1-4)[Fuc(a1-3)]GlcNAc
# Summary of the method: as §1
# [5] = biological target: Fuc(a1-2)Gal(b1-4)[Fuc(a1-3)]GlcNAc(b1-3)GalNAc
# Summary of the method: as §1
# [6] = biological target: Fuc(a1-2)Gal(b1-4)[Fuc(a1-3)]GlcNAc(b1-3)[Neu5Ac(a2-6)Gal(b1-4)GlcNAc(b1-6)]Gal(b1-4)Glc
# Summary of the method: as §1
# [7] = biological target: Fuc(a1-2)Gal3S(b1-4)GlcNAc
# Summary of the method: as §1
# [8] = biological target: Fuc(a1-2)Gal6S(b1-3)GlcNAc
# Summary of the method: as §1
# [9] = biological target: Fuc(a1-2)Gal6S(b1-3)GlcNAc6S
# Summary of the method: as §1
# Fuc(a1-2)Gal6S(b1-4)Glc = biological target: Fuc(a1-2)Gal6S(b1-4)Glc
# Summary of the method: as §1
# [10] = biological target: Fuc(a1-2)Gal6S(b1-4)Glc6S
# Summary of the method: as §1
# Fuc(a1-2)[Gal(a1-3)]Gal = biological target: Fuc(a1-2)[Gal(a1-3)]Gal
# Summary of the method: as §1
# [11] = biological target: Fuc(a1-2)[Gal(a1-3)]Gal(b1-3)GalNAc
# Summary of the method: as §1
# [12] = biological target: Fuc(a1-2)[Gal(a1-3)]Gal(b1-3)GalNAc(b1-3)Gal(a1-4)Gal(b1-4)Glc
# Summary of the method: as §1
# [13] = biological target: Fuc(a1-2)[Gal(a1-3)]Gal(b1-3)GlcNAc
# Summary of the method: as §1
# [14] = biological target: Fuc(a1-2)[Gal(a1-3)]Gal(b1-3)GlcNAc(b1-2)Man(a1-3)[Fuc(a1-2)[Gal(a1-3)]Gal(b1-3)GlcNAc(b1-2)Man(a1-6)]Man(b1-4)GlcNAc(b1-4)GlcNAc
# Summary of the method: as §1
# [15] = biological target: Fuc(a1-2)[Gal(a1-3)]Gal(b1-3)GlcNAc(b1-2)Man(a1-3)[Fuc(a1-2)[Gal(a1-3)]Gal(b1-3)GlcNAc(b1-2)Man(a1-6)]Man(b1-4)GlcNAc(b1-4)[Fuc(a1-6)]GlcNAc
# Summary of the method: as §1
# [16] = biological target: Fuc(a1-2)[Gal(a1-3)]Gal(b1-3)GlcNAc(b1-3)GalNAc
# Summary of the method: as §1
# [17] = biological target: Fuc(a1-2)[Gal(a1-3)]Gal(b1-3)GlcNAc(b1-6)GalNAc
# Summary of the method: as §1
# [18] = biological target: Fuc(a1-2)[Gal(a1-3)]Gal(b1-4)Glc
# Summary of the method: as §1
# [19] = biological target: Fuc(a1-2)[Gal(a1-3)]Gal(b1-4)GlcNAc
# Summary of the method: as §1
# [20] = biological target: Fuc(a1-2)[Gal(a1-3)]Gal(b1-4)GlcNAc(b1-2)Man
# Summary of the method: as §1
# [21] = biological target: Fuc(a1-2)[Gal(a1-3)]Gal(b1-4)GlcNAc(b1-2)Man(a1-3)[Fuc(a1-2)[Gal(a1-3)]Gal(b1-4)GlcNAc(b1-2)Man(a1-6)]Man(b1-4)GlcNAc(b1-4)GlcNAc
# Summary of the method: as §1
# [22] = biological target: Fuc(a1-2)[Gal(a1-3)]Gal(b1-4)GlcNAc(b1-2)Man(a1-3)[Fuc(a1-2)[Gal(a1-3)]Gal(b1-4)GlcNAc(b1-2)Man(a1-6)]Man(b1-4)GlcNAc(b1-4)[Fuc(a1-6)]GlcNAc
# Summary of the method: as §1
# [23] = biological target: Fuc(a1-2)[Gal(a1-3)]Gal(b1-4)GlcNAc(b1-3)GalNAc
# Summary of the method: as §1
# [24] = biological target: Fuc(a1-2)[Gal(a1-3)]Gal(b1-4)GlcNAc(b1-3)[Fuc(a1-2)[Gal(a1-3)]Gal(b1-4)GlcNAc(b1-6)]GalNAc
# Summary of the method: as §1
# [25] = biological target: Fuc(a1-2)[Gal(a1-3)]Gal(b1-4)GlcNAc(b1-6)GalNAc
# Summary of the method: as §1
# [26] = biological target: Fuc(a1-2)[Gal(a1-3)]Gal(b1-4)[Fuc(a1-3)]Glc
# Summary of the method: as §1
# [27] = biological target: Fuc(a1-2)[Gal(a1-3)]Gal(b1-4)[Fuc(a1-3)]GlcNAc
# Summary of the method: as §1
# [28] = biological target: Fuc(a1-2)[Gal(a1-3)]Gal(b1-4)[Fuc(a1-3)]GlcNAc(b1-3)GalNAc
# Summary of the method: as §1
# [29] = biological target: Fuc(a1-2)[Gal(a1-4)]Gal(b1-4)GlcNAc
# Summary of the method: as §1
# [30] = biological target: Fuc(a1-2)[GalNAc(a1-3)]Gal
# Summary of the method: as §1
# [31] = biological target: Fuc(a1-2)[GalNAc(a1-3)]Gal(b1-3)GalNAc(a1-3)[Fuc(a1-2)]Gal(b1-4)GlcNAc
# Summary of the method: as §1
# [32] = biological target: Fuc(a1-2)[GalNAc(a1-3)]Gal(b1-3)GalNAc(b1-3)Gal(a1-4)Gal(b1-4)Glc
# Summary of the method: as §1
# [33] = biological target: Fuc(a1-2)[GalNAc(a1-3)]Gal(b1-3)GlcNAc
# Summary of the method: as §1
# [34] = biological target: Fuc(a1-2)[GalNAc(a1-3)]Gal(b1-3)GlcNAc(b1-2)Man(a1-3)[Fuc(a1-2)[GalNAc(a1-3)]Gal(b1-3)GlcNAc(b1-2)Man(a1-6)]Man(b1-4)GlcNAc(b1-4)GlcNAc
# Summary of the method: as §1
# [35] = biological target: Fuc(a1-2)[GalNAc(a1-3)]Gal(b1-3)GlcNAc(b1-2)Man(a1-3)[Fuc(a1-2)[GalNAc(a1-3)]Gal(b1-3)GlcNAc(b1-2)Man(a1-6)]Man(b1-4)GlcNAc(b1-4)[Fuc(a1-6)]GlcNAc
# Summary of the method: as §1
# [36] = biological target: Fuc(a1-2)[GalNAc(a1-3)]Gal(b1-3)GlcNAc(b1-3)GalNAc
# Summary of the method: as §1
binder,measurement,setting,value
his-Lectin-24A (Drosophila melanogaster) (protein) MFRLSVLVLNLLLVSHEFSAGTAKIEIQPLPALCNGYCFPTLKPVMEYVAIHQDKWNTCTEILANEARKDQIQLNIQLDALKADVSNIKASQLSKDEKLDRMEREQFAMHESLETINRYLTVKLDRTKLQLEAIKNTMDYMKAQMDGYFSAINGVQCLQPGFEKIGDRYFYIEEDVELNWLDAQAKCRRMGGHLASIKTKQEFDAIVEKLDDSKSYFLGVNENTKTGDFVSAASGKSCLYHEWGPGEPHHNNDQERCVSILRKLMHVGNCTYEKRFICQYGI,glycan array binding signal (z-score),[1],-0.533
same,glycan array binding signal (z-score),[2],-0.328
same,glycan array binding signal (z-score),[3],1.19
same,glycan array binding signal (z-score),[4],-0.768
same,glycan array binding signal (z-score),[5],0.482
same,glycan array binding signal (z-score),[6],0.151
same,glycan array binding signal (z-score),[7],-0.932
same,glycan array binding signal (z-score),[8],1.03
same,glycan array binding signal (z-score),[9],-0.015
same,glycan array binding signal (z-score),Fuc(a1-2)Gal6S(b1-4)Glc,-0.34
same,glycan array binding signal (z-score),[10],-0.878
same,glycan array binding signal (z-score),Fuc(a1-2)[Gal(a1-3)]Gal,-1.27
same,glycan array binding signal (z-score),[11],0
same,glycan array binding signal (z-score),[12],-0.993
same,glycan array binding signal (z-score),[13],-0.679
same,glycan array binding signal (z-score),[14],-0.788
same,glycan array binding signal (z-score),[15],0.379
same,glycan array binding signal (z-score),[16],-0.701
same,glycan array binding signal (z-score),[17],-0.692
same,glycan array binding signal (z-score),[18],-0.583
same,glycan array binding signal (z-score),[19],-0.452
same,glycan array binding signal (z-score),[20],0.08
same,glycan array binding signal (z-score),[21],2.02
same,glycan array binding signal (z-score),[22],-1.36
same,glycan array binding signal (z-score),[23],0.642
same,glycan array binding signal (z-score),[24],0.557
same,glycan array binding signal (z-score),[25],0.328
same,glycan array binding signal (z-score),[26],-1.49
same,glycan array binding signal (z-score),[27],-0.544
same,glycan array binding signal (z-score),[28],-0.502
same,glycan array binding signal (z-score),[29],0.495
same,glycan array binding signal (z-score),[30],0.077
same,glycan array binding signal (z-score),[31],-0.054
same,glycan array binding signal (z-score),[32],-0.805
same,glycan array binding signal (z-score),[33],1.9
same,glycan array binding signal (z-score),[34],-1.52
same,glycan array binding signal (z-score),[35],-0.522
same,glycan array binding signal (z-score),[36],-0.188

# Two entries from above, with bars between the fields:
binder | measurement | setting | value
his-Lectin-24A (Drosophila melanogaster) (protein) MFRLSVLVLNLLLVSHEFSAGTAKIEIQPLPALCNGYCFPTLKPVMEYVAIHQDKWNTCTEILANEARKDQIQLNIQLDALKADVSNIKASQLSKDEKLDRMEREQFAMHESLETINRYLTVKLDRTKLQLEAIKNTMDYMKAQMDGYFSAINGVQCLQPGFEKIGDRYFYIEEDVELNWLDAQAKCRRMGGHLASIKTKQEFDAIVEKLDDSKSYFLGVNENTKTGDFVSAASGKSCLYHEWGPGEPHHNNDQERCVSILRKLMHVGNCTYEKRFICQYGI | glycan array binding signal (z-score) | [21] | 2.02
same | glycan array binding signal (z-score) | [22] | -1.36
